In this experiment the target is T1, HA-IRX5 (UniProt P78411).
T1 sequence: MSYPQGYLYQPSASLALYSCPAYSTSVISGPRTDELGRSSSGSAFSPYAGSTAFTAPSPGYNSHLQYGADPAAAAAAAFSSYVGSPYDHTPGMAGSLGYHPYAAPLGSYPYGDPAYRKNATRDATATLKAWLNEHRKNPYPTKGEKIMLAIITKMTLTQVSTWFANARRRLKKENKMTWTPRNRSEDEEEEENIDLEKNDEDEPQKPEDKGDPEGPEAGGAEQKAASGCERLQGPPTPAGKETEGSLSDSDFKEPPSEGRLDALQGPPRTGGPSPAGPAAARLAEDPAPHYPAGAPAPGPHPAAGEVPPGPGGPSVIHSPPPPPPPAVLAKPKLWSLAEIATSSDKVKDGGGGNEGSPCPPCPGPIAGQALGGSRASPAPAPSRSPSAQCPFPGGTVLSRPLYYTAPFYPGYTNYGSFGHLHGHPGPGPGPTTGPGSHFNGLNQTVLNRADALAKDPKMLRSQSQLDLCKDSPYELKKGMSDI
In words: co-IP; HEK-293T cells transiently cotransfected with HA-IRX5 and FLAG-HMGN4; extracts incubated with anti-IRX5 or IgG and Protein A/G agarose beads overnight at 4°C; immunoblot.

No constants are given. Whether binding was seen depends on the method and setting. In cells and extracts the contact can be indirect. Some results given as binding are weak or reduced against the parent protein; the word gives no strength. Where a sequence is shown, tags or fusion partners need not be part of it.

For the substance FLAG-HMGN4 (from UniProt O00479 1-90), the binding entry was “binds”.

These data come from paper PMC11984319.
